Assay: general procedure: solution-phase peptide synthesis; HATU
Conditions: for final HPLC purity: HPLC Protocol A

Substance: N-[(9H-fluoren-9-ylmethoxy)carbonyl]-2-methylalanyl-N-[(3R,4S,5S)-3-methoxy-1-{(2S)-2-[(1R,2R)-1-methoxy-2-methyl-3-oxo-3-{[(1S)-2-phenyl-1-(1,3-thiazol-2-yl)ethyl]amino}propyl]pyrrolidin-1-yl}-5-methyl-1-oxoheptan-4-yl]-N-methyl-L-valinamide
- step yield (coupling step): 74%
- final HPLC purity (coupling step): >97%

Substance: 2-methylalanyl-N-[(3R,4S,5S)-3-methoxy-1-{(2S)-2-[(1R,2R)-1-methoxy-2-methyl-3-oxo-3-{[(1S)-2-phenyl-1-(1,3-thiazol-2-yl)ethyl]amino}propyl]pyrrolidin-1-yl}-5-methyl-1-oxoheptan-4-yl]-N-methyl-L-valinamide
- step yield (late stage modification step): 75%
- final HPLC purity (late stage modification step): >97%

Substance: N-[(9H-fluoren-9-ylmethoxy)carbonyl]-2-methylalanyl-N-[(3R,4S,5S)-3-methoxy-1-{(2S)-2-[(1R,2R)-1-methoxy-3-{[(2S)-1-methoxy-1-oxo-3-phenylpropan-2-yl]amino}-2-methyl-3-oxopropyl]pyrrolidin-1-yl}-5-methyl-1-oxoheptan-4-yl]-N-methyl-L-valinamide
- step yield (coupling step, over two steps): 88% over two steps

Substance: 2-methylalanyl-N-[(3R,4S,5S)-1-{(2S)-2-[(1R,2R)-3-{[(1S)-1-carboxy-2-phenylethyl]amino}-1-methoxy-2-methyl-3-oxopropyl]pyrrolidin-1-yl}-3-methoxy-5-methyl-1-oxoheptan-4-yl]-N-methyl-L-valinamide, trifluoroacetic acid salt
- step yield (late stage modification step, trifluoroacetic acid salt): 52%

— US9777070B2 (Pfizer Inc., priority 2014, dated 2017)
